Experimental data as given in US7538241B2, “Hsp90 family protein inhibitors” (Kyowa Hakko Kogyo Co., Ltd., priority 2003, dated 2009).
Some of these results come from one statement about several compounds together.

These compounds were tested against T1, Human N-terminal recombinant Hsp90 protein (region of amino acids 9 to 236) (Homo sapiens, UniProt P07900) (assay: Hsp90 protein binding assay (competition with biotinylated Radicicol)). Details: at concentrations of at most 10 μmol/L.
T1 construct: region of amino acids 9 to 236; made in house

Structure (SMILES)	inhibition of the binding of biotinylated Radicicol to the Hsp90 protein
COCCc1c(C(C)=O)c(O)cc(O)c1-c1cccc(OCc2ccccc2)c1 [Compound 135, 1-[2,4-Dihydroxy-5-(3-benzyloxyphenyl)-6-(2-methoxyethyl)phenyl]ethanone]	at least 30%
CCc1c(O)cc(O)c(-c2ccccc2)c1CCOCC(=O)N(C)C [Compound 157, 2-[2-(2-Ethyl-3,5-dihydroxy-6-phenylphenyl)ethoxy]-N,N-dimethylacetamide]	at least 30%
CCc1c(O)cc(O)c(-c2cccc(O)c2)c1CCOCCO [Compound 174, 6-Ethyl-5-[2-(2-hydroxyethoxy)ethyl]-4-(3-hydroxyphenyl)benzene-1,3-diol]	at least 30%
CCc1c(O)cc(O)c(-c2ccccc2)c1Cc1ocnc1CO [Compound 208, 6-Ethyl-5-{[4-(hydroxymethyl)-1,3-oxazol-5-yl]methyl}-4-phenylbenzene-1,3-diol]	at least 30%
COC(=O)Cc1c(Br)c(O)cc(O)c1-c1ccccc1 [Compound 10, Methyl 2-bromo-3,5-dihydroxy-6-phenylphenylacetate]	at least 30%
CCc1c(O)cc(O)c(-c2cccc(C(=O)NCCO)c2)c1CC1O[C@H](CO)[C@@H](CO)O1 [Compound 304, 5-{[(4R,5R)-4,5-Bis(hydroxymethyl)-1,3-dioxolan-2-yl]methyl}-6-ethyl-4-[3-(2-hydroxyethyl)carbamoylphenyl]benzene-1,3-diol]	at least 30%
CCc1c(O)cc(O)c(-c2ccccc2)c1CCc1ocnc1C(=O)O [Compound 209, 5-[2-(2-Ethyl-3,5-dihydroxy-6-phenylphenyl)ethyl]-1,3-oxazole-4-carboxylic acid]	at least 30%
CCc1c(O)cc(O)c(-c2ccccc2)c1CCC(=O)NCCNC(C)=O [Compound 221, N-[2-(acetylamino)ethyl]-3-(2-ethyl-3,5-dihydroxy-6-phenylphenyl)propanamide]	at least 30%
CCc1c(O)cc(O)c(-c2cccc(O)c2)c1CC1O[C@@H](CO)[C@H](CO)O1 [Compound 281, 5-{[(4S,5S)-4,5-bis(hydroxymethyl)-1,3-dioxolan-2-yl]methyl}-6-ethyl-4-(3-hydroxyphenyl)benzene-1,3-diol]	at least 30%
CCc1c(O)cc(O)c(-c2cccc(C)c2)c1CC1O[C@H](CO)[C@@H](CO)O1 [Compound 228, 5-{[(4R,5R)-4,5-bis(hydroxymethyl)-1,3-dioxolan-2-yl]methyl}-6-ethyl-4-(3-methylphenyl)benzene-1,3-diol]	at least 30%
O=C(Cc1c(Br)c(O)cc(O)c1-c1ccccc1)N1CCN(C(=O)c2ccco2)CC1 [Compound 91, 2-(2-Bromo-3,5-dihydroxy-6-phenylphenyl)-1-[4-(2-furoyl)piperazin-1-yl]ethanone]	at least 30%
CCc1c(O)cc(O)c(-c2cccc(F)c2)c1CC1O[C@@H](CO)[C@H](CO)O1 [Compound 282, 5-{[(4S,5S)-4,5-bis(hydroxymethyl)-1,3-dioxolan-2-yl]methyl}-6-ethyl-4-(3-fluorophenyl)benzene-1,3-diol]	at least 30%
CCc1c(O)cc(O)c(-c2ccccc2)c1CC(O)(CCCO)CCCO [Compound 199, 6-Ethyl-5-[2,5-dihydroxy-2-(3-hydroxypropyl)pentyl]-4-phenylbenzene-1,3-diol]	at least 30%
COCCc1c(Br)c(O)cc(O)c1-c1ccccc1 [Compound 64, 6-Bromo-5-(2-methoxyethyl)-4-phenylbenzene-1,3-diol]	at least 30%
CCc1c(O)cc(O)c(-c2ccccc2)c1C=CC(CO)CO [Compound 214, 6-ethyl-5-[4-hydroxy-3-(hydroxymethyl)but-1-en-1-yl]-4-phenylbenzene-1,3-diol]	at least 30%
N#Cc1cccnc1N1CCN(C(=O)Cc2c(Br)c(O)cc(O)c2-c2ccccc2)CC1 [Compound 90, 2-(2-Bromo-3,5-dihydroxy-6-phenylphenyl)-1-[4-(3-cyanopyridin-2-yl)piperazin-1-yl]ethanone]	at least 30%
OC[C@H]1OC(Cc2cc(O)cc(O)c2-c2ccccc2)O[C@@H]1CO [Compound 230, 5-{[(4R,5R)-4,5-bis(hydroxymethyl)-1,3-dioxolan-2-yl]methyl}-4-phenylbenzene-1,3-diol]	at least 30%
O=C(Cc1c(Br)c(O)cc(O)c1-c1ccccc1)NCc1cccnc1 [Compound 17, 2-(2-Bromo-3,5-dihydroxy-6-phenylphenyl)-N-(pyridin-3-ylmethyl)acetamide]	at least 30%
CCc1c(O)cc(O)c(-c2ccccc2)c1CC1O[C@H](COC)[C@@H](COC)O1 [Compound 308, 5-{[(4R,5R)-4,5-Bis(methoxymethyl)-1,3-dioxolan-2-yl]methyl}-6-ethyl-4-phenylbenzene-1,3-diol]	at least 30%
Oc1cc(O)c(-c2ccccc2)c(COCC2CCCO2)c1Br (centres unmarked) [Compound 85, 6-Bromo-5-[(oxolan-2-ylmethoxy)methyl]-4-phenylbenzene-1,3-diol]	at least 30%
COCCc1c(C(=O)C(F)(F)F)c(O)cc(O)c1-c1ccccc1 [Compound 125, 1-[2,4-Dihydroxy-6-(2-methoxyethyl)-5-phenylphenyl]-2,2,2-trifluoroethanone]	at least 30%
CCc1c(O)cc(O)c(-c2cccc(O)c2)c1CCO [Compound 172, 6-Ethyl-5-(2-hydroxyethyl)-4-(3-hydroxyphenyl)benzene-1,3-diol]	at least 30%
CCc1c(O)cc(O)c(-c2cccc(OCc3csc(C)n3)c2)c1CCOCC(O)CO (centres unmarked) [Compound 193, 5-[2-(2,3-Dihydroxypropoxy)ethyl]-6-ethyl-4-[3-(2-methyl-1,3-thiazol-4-ylmethyloxy)phenyl]benzene-1,3-diol]	at least 30%
CCc1c(O)cc(O)c(-c2cccc(CCC(C)O)c2)c1CCOCCOC (centres unmarked) [Compound 154, 6-Ethyl-4-[3-(3-hydroxybutyl)phenyl]-5-[2-(2-methoxyethoxy)ethyl]benzene-1,3-diol]	at least 30%
COCCc1c(C(C)=O)c(O)cc(O)c1-c1cccc(O)c1 [Compound 134, 1-[2,4-Dihydroxy-5-(3-hydroxyphenyl)-6-(2-methoxyethyl)phenyl]ethanone]	at least 30%
CCc1c(O)cc(O)c(-c2cccc(NS(C)(=O)=O)c2)c1CCOCC(O)CO (centres unmarked) [Compound 202, 6-Ethyl-5-[2-(2,3-dihydroxypropoxy)ethyl]-4-{3-[N-(methylsulfonyl)amino]phenyl}benzene-1,3-diol]	at least 30%
